The nature of the series: Picrate extraction, alkali metal ion complex association. The settings on record: in words; for affinity for alkali metal ions: lithium, sodium, potassium. Type of series: binding.

The results in this text go back to patent US20020155443A1, “Metal binding DNA interactive compounds” (priority 2000, published 2002).

Structures are written as SMILES.

In the case of `O=S1(=O)CC#CCOCCOCCOCCOCCOCCOCC#CC1` [Compound 2.47], the “affinity for lithium ions” value is listed as “slight affinity” and the “affinity for potassium ions versus sodium ions” value was “bound potassium ions slightly better than sodium ions”.
`O=C(OCC1COCCOCCOCCOCCO1)c1ccc(CS(=O)(=O)CC#CCO)cc1` (centres unmarked) [Compound 3.2]: the “affinity for alkali metal ions” value is “greater affinity for all alkali metal ions versus host 3.1”.
In the case of `O=S1(=O)CC#CCOCCOCCOCCOCC#CC1` [Compound 2.12], the “affinity for lithium ions” value was “significant affinity” and the “affinity for alkali metal ions” value is “slight affinity”.
With `O=S1(=O)CC#CCOc2ccccc2OCC#CC1` [Compound 2.10], the “affinity for alkali metal ions” value is given as “did not display measurable affinity”.
As for `O=S1(=O)CC#CCOCCOCCOCCOCCOCC#CC1` [Compound 2.46], the “affinity for potassium ions versus sodium ions” value is listed as “bound potassium ions with greater affinity than sodium ions”.
Still for that read-out and setting: with `O=S1(=O)CC#CCOCCOCCOCCOCCOCCOCCOCC#CC1` [Compound 2.48] the entry was “bound potassium with greater affinity than sodium ions”.
